The values below come from PMC4701713, “DNA Entry into and Exit out of the Cohesin Ring by an Interlocking Gate Mechanism” (Cell, 2015).

Sequences of proteins named here, by UniProt entry; tags and fusion partners are left off. A change or cut given only in a name is not applied to a line headed by its entry.
UniProt O94383: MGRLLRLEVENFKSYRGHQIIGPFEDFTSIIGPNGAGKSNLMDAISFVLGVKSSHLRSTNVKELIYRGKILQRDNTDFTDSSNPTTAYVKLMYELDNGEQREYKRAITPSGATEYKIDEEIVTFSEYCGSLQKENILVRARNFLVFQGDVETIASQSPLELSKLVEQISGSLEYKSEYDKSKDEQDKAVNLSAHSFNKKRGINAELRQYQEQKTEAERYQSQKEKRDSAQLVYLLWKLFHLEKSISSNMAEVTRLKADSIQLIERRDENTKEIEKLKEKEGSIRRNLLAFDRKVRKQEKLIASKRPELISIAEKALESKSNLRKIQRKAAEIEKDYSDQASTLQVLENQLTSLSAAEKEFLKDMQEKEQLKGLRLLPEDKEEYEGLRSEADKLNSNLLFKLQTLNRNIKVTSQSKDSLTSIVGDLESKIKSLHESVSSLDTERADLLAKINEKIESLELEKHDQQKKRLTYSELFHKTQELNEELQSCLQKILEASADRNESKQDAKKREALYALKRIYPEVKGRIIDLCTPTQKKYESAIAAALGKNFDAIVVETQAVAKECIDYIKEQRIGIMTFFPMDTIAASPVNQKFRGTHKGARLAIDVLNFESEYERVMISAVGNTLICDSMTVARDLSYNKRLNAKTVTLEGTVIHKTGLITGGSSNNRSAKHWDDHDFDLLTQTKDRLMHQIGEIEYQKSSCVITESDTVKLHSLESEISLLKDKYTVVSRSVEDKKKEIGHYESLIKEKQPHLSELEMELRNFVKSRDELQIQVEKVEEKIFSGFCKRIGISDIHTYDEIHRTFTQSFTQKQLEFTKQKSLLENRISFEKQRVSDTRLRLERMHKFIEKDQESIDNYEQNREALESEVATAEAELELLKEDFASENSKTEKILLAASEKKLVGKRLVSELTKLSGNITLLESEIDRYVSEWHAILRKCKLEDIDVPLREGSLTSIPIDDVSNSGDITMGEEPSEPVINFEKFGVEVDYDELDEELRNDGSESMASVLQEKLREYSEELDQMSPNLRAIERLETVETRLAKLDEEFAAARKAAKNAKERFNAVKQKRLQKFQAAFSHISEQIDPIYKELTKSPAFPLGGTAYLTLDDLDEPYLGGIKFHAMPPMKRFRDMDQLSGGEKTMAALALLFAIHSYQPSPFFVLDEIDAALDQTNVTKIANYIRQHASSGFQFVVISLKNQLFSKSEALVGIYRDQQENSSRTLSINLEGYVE
UniProt O42649: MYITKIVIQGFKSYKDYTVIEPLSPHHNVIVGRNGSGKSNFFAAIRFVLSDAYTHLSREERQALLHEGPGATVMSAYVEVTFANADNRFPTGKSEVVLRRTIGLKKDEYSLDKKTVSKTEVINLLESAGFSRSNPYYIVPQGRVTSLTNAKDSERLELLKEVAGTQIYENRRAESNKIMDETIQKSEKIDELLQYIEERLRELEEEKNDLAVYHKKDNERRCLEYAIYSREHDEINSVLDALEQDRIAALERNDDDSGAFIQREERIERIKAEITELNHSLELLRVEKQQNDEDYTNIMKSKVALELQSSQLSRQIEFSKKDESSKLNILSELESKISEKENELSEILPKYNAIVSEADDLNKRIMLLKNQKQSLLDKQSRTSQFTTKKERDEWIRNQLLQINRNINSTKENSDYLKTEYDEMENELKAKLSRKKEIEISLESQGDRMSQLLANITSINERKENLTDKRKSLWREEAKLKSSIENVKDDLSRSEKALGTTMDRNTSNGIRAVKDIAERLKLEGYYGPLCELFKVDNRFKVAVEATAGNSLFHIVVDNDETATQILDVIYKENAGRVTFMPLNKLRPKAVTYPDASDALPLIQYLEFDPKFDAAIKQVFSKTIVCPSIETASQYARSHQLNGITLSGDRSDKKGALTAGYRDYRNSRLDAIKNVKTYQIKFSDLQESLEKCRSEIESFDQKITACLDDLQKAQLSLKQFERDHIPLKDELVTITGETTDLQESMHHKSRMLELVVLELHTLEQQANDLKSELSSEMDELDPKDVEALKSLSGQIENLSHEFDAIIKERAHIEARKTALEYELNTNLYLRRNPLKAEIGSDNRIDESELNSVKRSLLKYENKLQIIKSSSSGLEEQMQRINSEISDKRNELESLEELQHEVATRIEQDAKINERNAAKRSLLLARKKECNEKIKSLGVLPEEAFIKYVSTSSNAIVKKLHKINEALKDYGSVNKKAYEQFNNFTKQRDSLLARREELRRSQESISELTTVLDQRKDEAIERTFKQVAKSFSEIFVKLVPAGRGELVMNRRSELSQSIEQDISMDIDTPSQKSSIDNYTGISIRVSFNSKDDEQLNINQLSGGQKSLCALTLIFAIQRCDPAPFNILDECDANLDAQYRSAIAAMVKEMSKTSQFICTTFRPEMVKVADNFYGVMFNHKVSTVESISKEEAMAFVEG
UniProt P30776: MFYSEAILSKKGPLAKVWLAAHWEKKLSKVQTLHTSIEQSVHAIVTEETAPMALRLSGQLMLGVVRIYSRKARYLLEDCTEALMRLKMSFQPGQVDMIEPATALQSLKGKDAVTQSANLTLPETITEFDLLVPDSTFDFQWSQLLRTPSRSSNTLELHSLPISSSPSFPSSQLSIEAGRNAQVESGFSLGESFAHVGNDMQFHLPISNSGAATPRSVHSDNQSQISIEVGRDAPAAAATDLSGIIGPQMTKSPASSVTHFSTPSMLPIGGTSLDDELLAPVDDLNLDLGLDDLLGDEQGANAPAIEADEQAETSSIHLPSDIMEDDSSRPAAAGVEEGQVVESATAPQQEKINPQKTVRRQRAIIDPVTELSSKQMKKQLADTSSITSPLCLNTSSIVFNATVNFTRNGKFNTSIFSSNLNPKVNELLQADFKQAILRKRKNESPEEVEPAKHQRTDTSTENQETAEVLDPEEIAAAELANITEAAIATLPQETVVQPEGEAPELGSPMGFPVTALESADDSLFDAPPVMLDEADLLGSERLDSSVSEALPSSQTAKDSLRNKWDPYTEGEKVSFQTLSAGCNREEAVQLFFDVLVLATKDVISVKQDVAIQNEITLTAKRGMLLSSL
UniProt O13816: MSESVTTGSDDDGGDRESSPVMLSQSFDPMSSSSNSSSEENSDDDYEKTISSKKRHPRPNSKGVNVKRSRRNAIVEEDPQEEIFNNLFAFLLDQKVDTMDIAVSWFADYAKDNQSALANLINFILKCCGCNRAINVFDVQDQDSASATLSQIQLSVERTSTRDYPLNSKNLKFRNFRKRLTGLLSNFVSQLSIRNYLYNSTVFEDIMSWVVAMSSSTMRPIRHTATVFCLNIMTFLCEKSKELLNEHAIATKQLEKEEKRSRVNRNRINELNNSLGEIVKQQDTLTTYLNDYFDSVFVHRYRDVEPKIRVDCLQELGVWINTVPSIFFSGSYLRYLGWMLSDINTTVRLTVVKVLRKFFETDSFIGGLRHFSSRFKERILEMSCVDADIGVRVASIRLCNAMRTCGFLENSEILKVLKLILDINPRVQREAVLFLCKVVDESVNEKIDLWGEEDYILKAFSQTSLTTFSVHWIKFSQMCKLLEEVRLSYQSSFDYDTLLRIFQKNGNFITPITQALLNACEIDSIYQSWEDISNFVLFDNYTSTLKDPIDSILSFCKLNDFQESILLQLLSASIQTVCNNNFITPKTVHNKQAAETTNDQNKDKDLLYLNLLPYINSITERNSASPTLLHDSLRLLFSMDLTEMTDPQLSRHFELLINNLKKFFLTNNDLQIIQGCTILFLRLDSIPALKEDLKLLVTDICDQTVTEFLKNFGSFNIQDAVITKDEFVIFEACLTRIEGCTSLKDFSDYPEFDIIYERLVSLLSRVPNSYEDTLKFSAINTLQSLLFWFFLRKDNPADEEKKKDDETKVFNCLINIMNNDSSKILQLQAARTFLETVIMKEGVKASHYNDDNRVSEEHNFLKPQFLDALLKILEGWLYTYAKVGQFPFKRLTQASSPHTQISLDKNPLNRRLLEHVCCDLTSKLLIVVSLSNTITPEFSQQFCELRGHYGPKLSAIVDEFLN

Results are given in words; binding and its absence hold for the method and conditions named. Some binding calls cover weakened binding; strength is not graded here.

This assay addresses Fission-yeast cohesin tetramer (Psm1, Psm3, Rad21 and Psc3) (fission yeast) (UniProt O94383+O42649+P30776+O13816). The experiment in a line: co-IP; recombinant cohesin tetramer immunoprecipitated via Rad21-HA with Pds5 alone or Wapl alone added; bound proteins by western blotting; both purified.

B1: Fission-yeast Pds5 (natural protein, fission yeast, UniProt Q9HFF5 1-1205, looked up)
chain: MIKLQFQRNIVPTHDNPLTTSEILKRLRDLLGELTSLSQDTIDRDSVLPVARSLVNNNLLHHKDKGIRSYTLCCIVELLRLCAPDAPFTLSQLEDIFQVILKILSGLMNQESTYYPQIYEILESLSNVKSAVLIVDLPNAEEFLVNIFRLFFDLARKGTTKNVEFYMLDIINQLINEINTIPAAALNILFAQLISGKGVRQTIGSSDSTNHGPAFQLARNIFHDSADRLQRYVCQYFSDIIFDSRDSLSDSMTTPEFIFSHNLVLQLWKYAPTTLLNIIPQFENELQAEQTSVRLVAIETVGLMLQDNAIWSDYPRVWSAFCGRLNDKSVACRIKCIEVASNALQNSLATSEIIENVVQMLQSKLADTDEKVRVATLKTIEQLTFETFKMQFSVQALKLMGDRLRDRKLNVRLQAIRTLSQIYNRAYQDLIDGVEYSIQMFSWIPSSLLEVFYVNDETTNAAVEICMAELVLQYLSSDTQTRLNRLFLSIKYFSEKAMRVFILLLQRQVKYSELLNYYIECCKNYNGGVMDNDEESITNKLKKVIDIISSKSSNPTLTEATFRKFAELNDRQSYKMLLQTFSIKSEYQVVLKSIKYLFKRVSETLSTASLECFRIFVYRSALFAFNKSNVHEIIQLLNEPVKYHNFLKPSEALLQHLPLIHPNIYGEVVIEVENIIVSSGIESDPKVIKALSQFSKRKKNFSIQTTTAEILRKLCLHGTQEQAKQAATIIAITETKEFKLDMITNIVENLEYNGGLPVRLMTLGQLFLYTLEEVEKVADQVTEFLVKKVIQRFPEKYDDTHNDEEWCTYEKLDNLTMCKVLAIRVLVNRLRAAAGGTEALNIGAPIIKLLKVLLMADGELSPFKNTPKISRAYLRLTASKYFLKLCSIPFYAEHIDFSSYVQISLLCQDENFDVRNLFLTKLQKQLQLKKLPISYYPLLFLTAVDPEEEIKTKASIWIRSQVAFFQKTHDFTMEYVATYLIHLLSHHPDISSIESENSLDFIAYIRFYVDTVVNSENVPIVFHLMQRIKQSYDVIEDGNNYIYVLSDMAQKILQVKSQNFGWSLTTYPKQIKLPYEILRPIPSIDEKKRIFNKIFITPKMESQIEHAIRTPVSSFAKQTTNKHANLKQKKTHSSKSDKKSSRRRKNEKRRKLNEQNPNIRNVPERSSSRFQGIRINYSEAPSSSEEISEEEEEISEEDFDEIEDL
notes: Pds5, cohesin subunit of fission yeast; Protein A was removed by protease; source: overexpressed in budding yeast, purified (IgG-agarose, Capto Q, gel filtration)
As to B1, the binding result is reported as “binds weakly”.
